Reference: patent publication EP3502102A1, “STING INHIBITORS” (ECOLE POLYTECHNIQUE FEDERALE DE LAUSANNE (EPFL), priority 2017, dated 2019)
Residue numbers refer to the chain shown, from its start. At least one compound was matched to its structure with a doubt left.

Experiments:
RIG-I = target: T1, RIG-I (Homo sapiens, UniProt O95786); assay: IFN-beta luciferase reporter in HEK293T cells transfected with RIG-I (counter-screen); type: cell-based; conditions: 0.01-5µM
T1 construct: expressed in transfected cells; host or cells: HEK293T
T1 sequence (O95786 1-925): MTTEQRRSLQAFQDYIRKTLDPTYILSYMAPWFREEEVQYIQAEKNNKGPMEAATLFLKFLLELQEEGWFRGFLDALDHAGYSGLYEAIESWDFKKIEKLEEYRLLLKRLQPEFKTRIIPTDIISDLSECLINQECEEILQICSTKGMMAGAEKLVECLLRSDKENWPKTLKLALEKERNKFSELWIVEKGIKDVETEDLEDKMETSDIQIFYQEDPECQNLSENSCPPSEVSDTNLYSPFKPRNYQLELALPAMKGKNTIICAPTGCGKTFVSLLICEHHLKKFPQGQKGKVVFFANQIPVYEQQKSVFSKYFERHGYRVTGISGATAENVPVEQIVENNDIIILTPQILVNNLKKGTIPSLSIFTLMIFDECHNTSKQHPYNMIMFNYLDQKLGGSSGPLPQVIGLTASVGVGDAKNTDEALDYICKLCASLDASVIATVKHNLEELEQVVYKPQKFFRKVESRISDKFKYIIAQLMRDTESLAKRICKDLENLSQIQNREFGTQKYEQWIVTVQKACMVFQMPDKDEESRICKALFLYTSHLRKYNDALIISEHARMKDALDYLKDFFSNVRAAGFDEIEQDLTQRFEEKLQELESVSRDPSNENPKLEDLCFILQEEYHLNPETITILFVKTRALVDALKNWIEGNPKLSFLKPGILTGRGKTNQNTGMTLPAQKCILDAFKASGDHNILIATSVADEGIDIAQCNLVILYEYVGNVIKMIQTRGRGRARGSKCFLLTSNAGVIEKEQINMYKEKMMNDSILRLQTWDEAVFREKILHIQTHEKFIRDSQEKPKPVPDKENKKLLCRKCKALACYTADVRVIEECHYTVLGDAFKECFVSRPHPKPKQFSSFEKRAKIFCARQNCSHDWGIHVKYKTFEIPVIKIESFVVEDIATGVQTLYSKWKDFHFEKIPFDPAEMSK
Procedure: Reporter activity was measured 16 h after compound treatment. A nonlinear regression analysis was performed. […] Circles indicate substitutes compared to C-176. d, e, Chemical compounds from (c) were tested at 0.5 µM for inhibitory activity in HEK293T cells transfected with STING (e) or RIG-I (f) in conjunction with IFN-• luciferase reporter, respectively. b, e, f, Values of inhibitor-treated cells were normalized to DMSO-treated cells. […] Cytokine levels were normalized to DMSO-treated control cells. A nonlinear regression analysis was performed for cGAMP stimulation. b, c, BMDMs were pre-treated with C-178 (0.25 µM) and stimulated with cGAMP, cyclic di-GMP, CMA, 90mer dsDNA or LPS for 3 h. The induction of Ifnb1 mRNA levels was assessed by RT-qPCR. d, Heatmaps of RNA sequencing analysis of BMDMs treated with DMSO or CMA and with or without addition of C-178. […] Reporter activity was measured 16 h after transfection and values were normalized to DMSO-treated control cells. c, BMDMs were treated with C-178 (0.25 µM) for 1 h, washed or left untreated and after an additional hour stimulated with cGAMP. […] Flag-STING was immunoprecipitated from whole cell lysate and analysed by autoradiography. In parallel, cell lysates were analysed by immunoblotting for p-TBK1 and STING. d, HEK293T cells expressing STING were treated as indicated (C-178 (1 µM)) and stimulated with CMA for 1.5 h. […]

WI-38 cells = assay: IFNB1 mRNA (RT-qPCR) in WI-38 cells stimulated with cGAMP; type: cell-based, human; conditions: even at high concentrations
murine STING [1] = target: T2, murine STING (Mus musculus, UniProt Q3TBT3, C91A); assay: Alanine scanning of the N-terminal part of murine STING (AA21-AA138), IFN reporter; type: cell-based; conditions: mutant C91A; 0.31-0.07 µM
T2 construct: expressed in transfected cells; host or cells: HEK293T
T2 sequence (Q3TBT3 1-378 C91A): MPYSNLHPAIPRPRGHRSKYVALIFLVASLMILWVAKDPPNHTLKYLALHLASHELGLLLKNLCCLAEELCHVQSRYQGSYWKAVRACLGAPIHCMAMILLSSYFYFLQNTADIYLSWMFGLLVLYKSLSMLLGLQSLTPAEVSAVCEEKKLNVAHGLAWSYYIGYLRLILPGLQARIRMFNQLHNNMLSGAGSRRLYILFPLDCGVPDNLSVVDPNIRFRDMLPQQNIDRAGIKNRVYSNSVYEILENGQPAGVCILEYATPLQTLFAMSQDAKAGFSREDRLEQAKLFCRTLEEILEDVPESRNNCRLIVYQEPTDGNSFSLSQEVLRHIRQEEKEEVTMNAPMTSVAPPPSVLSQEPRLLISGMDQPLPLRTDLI

murine STING [2] = target: T3, murine STING (Mus musculus, UniProt Q3TBT3, V27A); assay: as above; type: cell-based; conditions: mutant V27A; 0.31-0.07 µM
T3 construct: expressed in transfected cells; host or cells: HEK293T
T3 sequence (Q3TBT3 1-378 V27A): T2 sequence (Q3TBT3 1-378 C91A) with V27A, A91C

`O=C(Nc1ccc2c(c1)oc1ccccc12)c1ccc([N+](=O)[O-])o1` [C-178, N-dibenzo[b,d]furan-3-yl-5-nitro-2-furamide] was tested, and the “RIG-I-driven IFN induction” value (RIG-I) was “neither RIG-I nor TBK1-driven IFN induction was affected”, the cGAMP response (WI-38 cells) was “did not substantially alter” and the “inhibition of STING mutant” value (murine STING [1]) was “severely compromised inhibition”. The “inhibition of STING mutant” value (murine STING [2]) was “severely compromised inhibition”.
